Test results taken from PubChem BioAssay AID1439 (NMMLSC, 2008).
The campaign covered roughly 220,000 compounds. About 770 (0.35%) were called active. Inconclusive means that the source gave no clear call. Such entries were picked first, then a sample of the others. No stated cut-off is given here; in the data, active means binding response below about 49% or above about 150%; inconclusive means no clear call, values can overlap the other calls; inactive means in between.

By UniProt entry, the sequences of proteins in these tests, tags left out.
UniProt P09471, whole entry, looked up: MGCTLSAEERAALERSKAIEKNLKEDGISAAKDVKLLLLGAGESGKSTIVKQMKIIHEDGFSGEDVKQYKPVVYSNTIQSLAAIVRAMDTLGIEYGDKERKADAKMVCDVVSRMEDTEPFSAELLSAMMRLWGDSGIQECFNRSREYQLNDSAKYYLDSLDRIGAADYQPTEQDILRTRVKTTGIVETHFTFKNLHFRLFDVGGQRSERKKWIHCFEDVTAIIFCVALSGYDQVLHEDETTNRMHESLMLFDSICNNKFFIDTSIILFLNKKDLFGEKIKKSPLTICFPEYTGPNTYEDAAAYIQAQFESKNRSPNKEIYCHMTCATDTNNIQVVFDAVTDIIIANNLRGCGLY

target: Guanine nucleotide-binding protein G(o) subunit alpha (Homo sapiens) (UniProt P09471); experiment: RGS7-Galphao binding modulators, primary screen, biochemical, multiplexed bead flow cytometry (AID 1439); details: at 10 µM, actives lie on both sides;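 further: fluorescent Galphao held in activated GDP-AlF4 state binding bead-coupled RGS7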

| SMILES | binding response (% of control) |
| --- | --- |
| O=C(CO/N=C/c1ccc(Cl)cc1Cl)NNC(=O)c1ccc(Cl)cc1Cl | inconclusive: 83.7% |
| Cc1cccc(NNC(=O)c2c(F)cccc2Cl)c1 | inconclusive: 102% |
| COc1ccc(/C=C/C=C2\NC(=S)NC2=O)cc1 | inactive: 103% |
| COc1ccc(CN2CN(S(=O)(=O)c3cccs3)c3nc4ccccc4nc32)cc1 | inconclusive: 100% |
| O=C(Nc1ccc(F)cc1F)c1ccc(-n2cccn2)c([N+](=O)[O-])c1 | inconclusive: 90.5% |
| CN(c1ccccc1)c1nc(N)c([N+](=O)[O-])c(NCCO)n1 | inconclusive: -183% |
| O=C1CC(C(=O)Nc2ccc(Cl)cc2)S/C(=N\N=C\c2ccco2)N1 (stereo not given) | inconclusive: -41% |
| COc1cccc(CNC(=O)Cc2ccc(-n3c(=O)[nH]c4ccccc4c3=O)cc2)c1 | inactive: 98.7% |
| CCn1c(O)c(/C=C2\C=NN=C2c2ccccc2)sc1=S | inconclusive: 107% |
| CC(C)OCCCNC(=S)NNC(=O)c1ccc(Cl)c(Cl)c1 | inactive: 91.2% |
| COc1ccc(CN2CCc3ccccc3C2)c(OC)c1 | inconclusive: 118% |
| CS(=O)(=O)Nc1ccc(C(=O)Nc2ccc(S(=O)(=O)N3CCCC3)cc2)cc1 | inconclusive: 79.8% |
| COc1ccc(C2CC(=O)c3cnn(-c4nc(C)cc(C)n4)c3C2)cc1OC (stereo not given) | inconclusive: 108% |
| CC(=O)NCc1ccc(C(=O)O)cc1 | inconclusive: 85.5% |
| CCC1=[N+](CC(=O)c2ccc(Br)cc2)CCn2c(C)ccc21 | inconclusive: 40.8% |
| Cc1ccc(CCNC(=O)C2CC(c3ccc(C(F)(F)F)cc3)=NO2)cc1 (stereo not given) | inconclusive: 105% |
| Cc1onc(-c2ccccc2)c1-c1ccnc(N)n1 | inconclusive: 82.2% |
| CCCCCc1cc(=O)oc2c(C(CCN3CCCC(C)C3)c3ccc(N(C)C)cc3)c(OC)cc(OC)c12 (stereo not given) | inconclusive: 111% |
| CC(=O)C1=NOC(CNC(=O)c2c(-c3ccccc3Cl)noc2C)C1 (stereo not given) | inactive: 101% |
| Cc1ccc(-c2csc(N3C(=N)SCC3=O)n2)cc1 | inconclusive: 141% |
| Oc1c(/C=N/c2ccccn2)sc2ccccc12 | inconclusive: 80.7% |
| COP(=O)(OC)c1nc(-c2cccc3ccccc23)oc1N1CCCCC1 | inconclusive: 81.2% |
| CC(C)(C)c1ccc(N2C(=O)CSC2c2cccnc2)cc1 (stereo not given) | inconclusive: -1.92% |

| SMILES | binding response (% of control) |
| --- | --- |
| CCOC(=O)Cc1csc(NC(=O)c2c(O)c3c(n(CC(C)C)c2=O)CCCC3)n1 | inconclusive: 99% |
| COc1ccc(C(=O)Nc2ccccc2C(=O)N/N=C/c2ccccn2)cc1OC | inconclusive: 103% |
| COc1ccc2nc(/C=N/NC(=O)CCNC(=O)OC(C)(C)C)ccc2c1 | inconclusive: 70.9% |
| O=C(COC(=O)/C=C/c1cccs1)Nc1ccc2ccccc2c1 | inactive: 133% |
| O=C(NC(=O)c1ccc(Cl)cc1)Nc1ccc(-c2cnco2)cc1 | inconclusive: 86.3% |
| CC(=O)Nc1ccc(SCC(=O)c2c(N)n(Cc3ccccc3)c(=O)n(C)c2=O)cc1 | inconclusive: 93.9% |
| CCOC(=O)c1c(NC(=O)CSc2ncccn2)sc2c1CCN(Cc1ccccc1)C2 | inactive: 103% |
| COC(=O)c1nnn(-c2nonc2N)c1CSc1nnc(N)s1 | inactive: 96% |
| CCOc1ccc(C(=O)NCCO)cc1 | inconclusive: 37.9% |
| CC1(C)Cc2c(sc3c2c(=O)n(-c2cccc(Cl)c2)c(=O)n3CC(N)=O)CO1 | inconclusive: 95.1% |
| COc1cccc2c(=O)cc(C)n(CC(=O)Nc3ccc(Br)cc3)c12 | inconclusive: 70.1% |
| COc1ccc(C2c3[nH]c4ccccc4c3CCN2C(=O)Cc2nonc2C)c(F)c1 (stereo not given) | inconclusive: 80% |
| O=C(NC1(C(F)(F)F)NC(=O)N(Cc2cccnc2)C1=O)c1ccccc1 (stereo not given) | active: 41.6% |
| CCC(=O)NC(=S)Nc1cccc(NC(=O)c2ccccc2C)c1 | inconclusive: 113% |
| Clc1cccc(Cl)c1Cn1ccc(C2CC2)n1 | inconclusive: 94.7% |
| O=C(NNC(=O)c1c(F)cccc1F)c1sccc1-n1cccc1 | inconclusive: 81.6% |
| O=C(C(=O)N1CCN(c2ccc(F)cc2)CC1)N1CCCCC1 | inconclusive: 85.4% |
| COc1ccccc1C(C[N+](=O)[O-])c1c(N)n(C)c(=O)n(C)c1=O (stereo not given) | inconclusive: 97.3% |
| NC1=NC2(CCCC2)N=C(Nc2ccccc2)N1 | inconclusive: 107% |
| O=[N+]([O-])/C(C(Cl)=C(Cl)Cl)=C(\Sc1ccccc1)N1CCCCC1 | inactive: 108% |
| O=C(CCl)Nc1cc2[nH]c(=O)[nH]c2cc1Br | inconclusive: 93.6% |
| CC(C)Cn1c(N)cc(=O)n(C)c1=O | inconclusive: 48.4% |

2 successive entries out of the list so far, quoted:

| SMILES | binding response (% of control) |
| --- | --- |
| CCC(=O)NC(=S)Nc1cccc(NC(=O)c2ccccc2C)c1 | inconclusive: 113% |
| Clc1cccc(Cl)c1Cn1ccc(C2CC2)n1 | inconclusive: 94.7% |
